# Results from one PubChem assay

Data taken from PubChem BioAssay AID504749, deposited by NCATS (2011).

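Malaria parasite (P. falciparum) lines kept in red blood cells; parasite DNA is measured by SYBR Green fluorescence after lysis, 72 h after compound addition. Each compound was titrated across a series from about 0.000037 to 29 µM. The number is the fitted AC50, the concentration giving a half-maximal change in signal; a lower value means higher potency, whether the curve shows a decrease or an increase. Calls follow the curve class and fit quality: every row here is inconclusive, covering signal-raising curves and weak, poorly fitted, partial or highest-dose-only inhibition curves.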

Values are in µM. Every entry below has the call inconclusive. These entries are mostly ones the record files as inconclusive; other results of the assay are not listed here. Potencies fitted to partial, single-point or poorly fitting curves are rough.

O=c1[nH]c2ccccc2n1CCCN1CCC(n2c(=O)[nH]c3cc(Cl)ccc32)CC1 [3D7] read Potency 11.22 µM (inhibitor, single point).
O=c1[nH]c2ccccc2n1CCCN1CCC(n2c(=O)[nH]c3cc(Cl)ccc32)CC1 [CP265] read Potency 10 µM (inhibitor, single point).
O=c1[nH]c2ccccc2n1CCCN1CCC(n2c(=O)[nH]c3cc(Cl)ccc32)CC1 [CP215] read Potency 5.358 µM (inhibitor, partial curve).
O=c1[nH]c2ccccc2n1CCCN1CCC(n2c(=O)[nH]c3cc(Cl)ccc32)CC1 [AA1029] read Potency 3.981 µM (inhibitor, partial curve).
O=c1[nH]c2ccccc2n1CCCN1CCC(n2c(=O)[nH]c3cc(Cl)ccc32)CC1 [CP250] read Potency 5.012 µM (inhibitor, partial curve).
O=c1[nH]c2ccccc2n1CCCN1CCC(n2c(=O)[nH]c3cc(Cl)ccc32)CC1 [SC27B] read Potency 8.912 µM (inhibitor, partial curve).
O=c1[nH]c2ccccc2n1CCCN1CCC(n2c(=O)[nH]c3cc(Cl)ccc32)CC1 [CP291] read Potency 19.01 µM (inhibitor, single point).
O=c1[nH]c2ccccc2n1CCCN1CCC(n2c(=O)[nH]c3cc(Cl)ccc32)CC1 [CP217] read Potency 10 µM (inhibitor, partial curve).
O=c1[nH]c2ccccc2n1CCCN1CCC(n2c(=O)[nH]c3cc(Cl)ccc32)CC1 [CP247] read Potency 8.912 µM (inhibitor, partial curve).
O=c1[nH]c2ccccc2n1CCCN1CCC(n2c(=O)[nH]c3cc(Cl)ccc32)CC1 [CP252] read Potency 11.22 µM (inhibitor, partial curve).
O=c1[nH]c2ccccc2n1CCCN1CCC(n2c(=O)[nH]c3cc(Cl)ccc32)CC1 [CP194] read Potency 9.528 µM (inhibitor, single point).
O=c1[nH]c2ccccc2n1CCCN1CCC(n2c(=O)[nH]c3cc(Cl)ccc32)CC1 [CP268] read Potency 16.94 µM (inhibitor, partial curve, poor fit).
O=c1[nH]c2ccccc2n1CCCN1CCC(n2c(=O)[nH]c3cc(Cl)ccc32)CC1 [TAB113] read Potency 8.912 µM (inhibitor, partial curve).
Cc1cc(-c2ccc(N=Nc3c(S(=O)(=O)O)cc4cc(S(=O)(=O)O)cc(N)c4c3O)c(C)c2)ccc1N=Nc1c(S(=O)(=O)O)cc2cc(S(=O)(=O)O)cc(N)c2c1O [PAD] read Potency 12.59 µM (inhibitor, single point).
Cc1cc(-c2ccc(N=Nc3c(S(=O)(=O)O)cc4cc(S(=O)(=O)O)cc(N)c4c3O)c(C)c2)ccc1N=Nc1c(S(=O)(=O)O)cc2cc(S(=O)(=O)O)cc(N)c2c1O [DIV17] read Potency 5.358 µM (inhibitor, partial curve, poor fit).
Cc1cc(-c2ccc(N=Nc3c(S(=O)(=O)O)cc4cc(S(=O)(=O)O)cc(N)c4c3O)c(C)c2)ccc1N=Nc1c(S(=O)(=O)O)cc2cc(S(=O)(=O)O)cc(N)c2c1O [PC26] read Potency 10.69 µM (inhibitor, partial curve, poor fit).
Cc1cc(-c2ccc(N=Nc3c(S(=O)(=O)O)cc4cc(S(=O)(=O)O)cc(N)c4c3O)c(C)c2)ccc1N=Nc1c(S(=O)(=O)O)cc2cc(S(=O)(=O)O)cc(N)c2c1O [P93_24] read Potency 11.22 µM (inhibitor, single point).
Cc1cc(-c2ccc(N=Nc3c(S(=O)(=O)O)cc4cc(S(=O)(=O)O)cc(N)c4c3O)c(C)c2)ccc1N=Nc1c(S(=O)(=O)O)cc2cc(S(=O)(=O)O)cc(N)c2c1O [CP238] read Potency 10 µM (inhibitor, single point).

For reference, 2 entries once more:

{"compound": "Cc1cc(-c2ccc(N=Nc3c(S(=O)(=O)O)cc4cc(S(=O)(=O)O)cc(N)c4c3O)c(C)c2)ccc1N=Nc1c(S(=O)(=O)O)cc2cc(S(=O)(=O)O)cc(N)c2c1O", "tested on / at": "DIV17", "Potency (µM)": "5.358", "curve as filed": "inhibitor, partial curve, poor fit"}
{"compound": "O=c1[nH]c2ccccc2n1CCCN1CCC(n2c(=O)[nH]c3cc(Cl)ccc32)CC1", "tested on / at": "CP194", "Potency (µM)": "9.528", "curve as filed": "inhibitor, single point"}